Measured values: the supplement of paper PMC10849652
The other results are listed elsewhere or left out.

The chains behind the UniProt entries cited, without tags or fusion partners. Where a name states a change or a piece, a line headed by the entry shows the natural chain unless it says otherwise.
UniProt P13489: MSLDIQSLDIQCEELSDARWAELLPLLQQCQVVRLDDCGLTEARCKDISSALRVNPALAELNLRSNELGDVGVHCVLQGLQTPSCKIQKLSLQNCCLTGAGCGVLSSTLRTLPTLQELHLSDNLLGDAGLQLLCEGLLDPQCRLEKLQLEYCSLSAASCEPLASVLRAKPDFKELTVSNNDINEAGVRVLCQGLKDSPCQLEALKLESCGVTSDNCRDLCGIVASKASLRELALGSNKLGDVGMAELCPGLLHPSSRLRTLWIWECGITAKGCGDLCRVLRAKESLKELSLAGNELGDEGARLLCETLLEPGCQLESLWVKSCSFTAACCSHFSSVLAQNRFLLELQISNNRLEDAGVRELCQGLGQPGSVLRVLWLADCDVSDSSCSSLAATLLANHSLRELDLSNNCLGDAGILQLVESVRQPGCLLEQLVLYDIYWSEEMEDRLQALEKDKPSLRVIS
UniProt P04843: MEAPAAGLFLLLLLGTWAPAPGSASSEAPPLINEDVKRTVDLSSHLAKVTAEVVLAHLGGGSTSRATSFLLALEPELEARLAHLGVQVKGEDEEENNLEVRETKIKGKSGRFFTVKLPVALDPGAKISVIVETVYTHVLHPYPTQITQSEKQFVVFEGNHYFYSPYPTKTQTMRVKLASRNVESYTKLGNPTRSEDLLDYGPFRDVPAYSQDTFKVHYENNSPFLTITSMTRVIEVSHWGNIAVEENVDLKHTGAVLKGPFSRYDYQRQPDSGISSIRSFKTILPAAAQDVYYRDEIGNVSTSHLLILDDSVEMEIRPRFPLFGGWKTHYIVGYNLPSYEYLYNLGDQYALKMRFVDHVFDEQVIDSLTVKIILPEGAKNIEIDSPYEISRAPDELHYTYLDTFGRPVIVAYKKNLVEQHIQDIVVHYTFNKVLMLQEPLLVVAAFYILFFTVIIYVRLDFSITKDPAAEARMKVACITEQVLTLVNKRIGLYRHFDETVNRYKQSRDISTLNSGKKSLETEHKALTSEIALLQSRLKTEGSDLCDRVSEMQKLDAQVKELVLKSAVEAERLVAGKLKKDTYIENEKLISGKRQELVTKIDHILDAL
UniProt P78346: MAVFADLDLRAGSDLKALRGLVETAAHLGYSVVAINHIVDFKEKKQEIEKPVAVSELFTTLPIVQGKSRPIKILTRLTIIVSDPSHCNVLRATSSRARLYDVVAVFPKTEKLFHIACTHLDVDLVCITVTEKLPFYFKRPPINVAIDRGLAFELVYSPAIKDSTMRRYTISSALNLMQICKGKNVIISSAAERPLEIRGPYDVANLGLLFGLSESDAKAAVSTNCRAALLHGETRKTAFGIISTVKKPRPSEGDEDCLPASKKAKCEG
UniProt P10155: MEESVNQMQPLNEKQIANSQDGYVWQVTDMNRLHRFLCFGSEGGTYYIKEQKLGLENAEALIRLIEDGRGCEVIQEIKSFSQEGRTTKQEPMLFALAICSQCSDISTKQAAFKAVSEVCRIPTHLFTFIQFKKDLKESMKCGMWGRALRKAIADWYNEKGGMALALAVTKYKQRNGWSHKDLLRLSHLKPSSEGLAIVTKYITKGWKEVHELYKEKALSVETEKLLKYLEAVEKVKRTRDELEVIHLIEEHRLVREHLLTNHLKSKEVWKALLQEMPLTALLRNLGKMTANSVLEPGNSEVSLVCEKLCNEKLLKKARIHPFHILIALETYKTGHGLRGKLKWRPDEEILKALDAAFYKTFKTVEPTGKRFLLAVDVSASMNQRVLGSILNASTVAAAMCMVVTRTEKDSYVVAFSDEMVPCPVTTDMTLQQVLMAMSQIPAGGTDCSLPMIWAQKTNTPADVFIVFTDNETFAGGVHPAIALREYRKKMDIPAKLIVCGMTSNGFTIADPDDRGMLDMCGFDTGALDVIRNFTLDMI
UniProt Q7LG56, whole entry, looked up: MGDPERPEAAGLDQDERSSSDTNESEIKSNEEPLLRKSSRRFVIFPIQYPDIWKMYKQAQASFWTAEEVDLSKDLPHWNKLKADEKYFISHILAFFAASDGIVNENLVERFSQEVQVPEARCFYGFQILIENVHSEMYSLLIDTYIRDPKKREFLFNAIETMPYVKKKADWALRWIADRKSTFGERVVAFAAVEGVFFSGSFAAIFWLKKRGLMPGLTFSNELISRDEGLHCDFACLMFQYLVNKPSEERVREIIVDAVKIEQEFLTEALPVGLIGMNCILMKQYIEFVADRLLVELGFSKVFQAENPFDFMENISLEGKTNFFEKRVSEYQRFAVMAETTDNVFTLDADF
UniProt O75695: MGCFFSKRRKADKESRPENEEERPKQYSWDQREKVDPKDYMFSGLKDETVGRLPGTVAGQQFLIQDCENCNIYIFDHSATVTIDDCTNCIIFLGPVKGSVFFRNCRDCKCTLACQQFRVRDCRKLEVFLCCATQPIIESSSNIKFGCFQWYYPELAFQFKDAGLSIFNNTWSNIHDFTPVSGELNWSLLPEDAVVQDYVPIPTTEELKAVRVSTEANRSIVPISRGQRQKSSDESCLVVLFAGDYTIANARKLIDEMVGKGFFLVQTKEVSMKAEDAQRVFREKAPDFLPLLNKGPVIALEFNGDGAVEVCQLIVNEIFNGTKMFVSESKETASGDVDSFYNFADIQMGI
UniProt O75818: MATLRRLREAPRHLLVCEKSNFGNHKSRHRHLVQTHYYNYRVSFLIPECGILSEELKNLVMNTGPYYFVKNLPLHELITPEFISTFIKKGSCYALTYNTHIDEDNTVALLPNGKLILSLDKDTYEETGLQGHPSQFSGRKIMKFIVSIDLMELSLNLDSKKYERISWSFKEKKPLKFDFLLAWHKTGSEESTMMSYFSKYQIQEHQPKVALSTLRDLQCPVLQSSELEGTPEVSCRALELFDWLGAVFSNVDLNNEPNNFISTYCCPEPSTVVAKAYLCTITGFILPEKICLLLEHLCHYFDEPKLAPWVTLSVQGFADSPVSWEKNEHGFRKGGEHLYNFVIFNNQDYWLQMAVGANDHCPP
UniProt Q86WX3: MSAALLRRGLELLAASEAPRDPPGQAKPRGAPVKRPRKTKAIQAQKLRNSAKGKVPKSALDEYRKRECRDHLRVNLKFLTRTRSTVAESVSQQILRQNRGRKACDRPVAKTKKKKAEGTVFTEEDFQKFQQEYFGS
UniProt Q9P2E9: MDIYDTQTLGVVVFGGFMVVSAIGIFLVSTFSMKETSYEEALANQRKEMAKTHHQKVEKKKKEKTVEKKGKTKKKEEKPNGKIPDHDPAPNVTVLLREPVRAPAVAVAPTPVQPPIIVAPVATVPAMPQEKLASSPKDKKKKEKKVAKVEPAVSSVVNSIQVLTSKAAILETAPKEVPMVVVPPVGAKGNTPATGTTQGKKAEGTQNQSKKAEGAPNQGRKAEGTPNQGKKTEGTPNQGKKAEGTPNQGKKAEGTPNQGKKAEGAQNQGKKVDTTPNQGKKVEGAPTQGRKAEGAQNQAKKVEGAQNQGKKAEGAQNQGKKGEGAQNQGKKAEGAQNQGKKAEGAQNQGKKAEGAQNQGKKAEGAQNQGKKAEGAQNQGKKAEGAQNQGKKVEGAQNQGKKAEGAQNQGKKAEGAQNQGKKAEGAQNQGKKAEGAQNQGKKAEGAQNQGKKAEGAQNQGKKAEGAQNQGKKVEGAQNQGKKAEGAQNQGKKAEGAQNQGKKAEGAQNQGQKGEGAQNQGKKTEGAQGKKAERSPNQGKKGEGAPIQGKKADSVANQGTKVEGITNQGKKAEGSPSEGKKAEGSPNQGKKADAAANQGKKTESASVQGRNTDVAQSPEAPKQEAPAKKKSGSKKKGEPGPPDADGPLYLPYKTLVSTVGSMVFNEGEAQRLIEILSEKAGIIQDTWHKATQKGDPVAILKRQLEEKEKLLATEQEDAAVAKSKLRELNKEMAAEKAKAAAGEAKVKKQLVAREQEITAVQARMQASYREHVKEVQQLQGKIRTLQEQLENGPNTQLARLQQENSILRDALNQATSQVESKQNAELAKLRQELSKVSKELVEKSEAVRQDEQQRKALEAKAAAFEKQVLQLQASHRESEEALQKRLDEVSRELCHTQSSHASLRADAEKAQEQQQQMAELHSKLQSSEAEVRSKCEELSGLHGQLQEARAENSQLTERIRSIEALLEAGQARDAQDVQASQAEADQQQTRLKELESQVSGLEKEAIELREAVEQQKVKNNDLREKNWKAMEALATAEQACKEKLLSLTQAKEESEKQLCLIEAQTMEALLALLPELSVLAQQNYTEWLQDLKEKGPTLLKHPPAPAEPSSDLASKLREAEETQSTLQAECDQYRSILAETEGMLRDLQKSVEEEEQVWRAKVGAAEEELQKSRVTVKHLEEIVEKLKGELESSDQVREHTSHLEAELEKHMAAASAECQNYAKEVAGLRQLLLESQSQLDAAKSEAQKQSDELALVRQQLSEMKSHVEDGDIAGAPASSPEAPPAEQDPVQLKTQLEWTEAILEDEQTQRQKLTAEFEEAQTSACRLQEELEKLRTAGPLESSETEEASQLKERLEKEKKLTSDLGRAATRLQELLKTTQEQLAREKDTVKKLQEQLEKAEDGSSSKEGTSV
UniProt P10301: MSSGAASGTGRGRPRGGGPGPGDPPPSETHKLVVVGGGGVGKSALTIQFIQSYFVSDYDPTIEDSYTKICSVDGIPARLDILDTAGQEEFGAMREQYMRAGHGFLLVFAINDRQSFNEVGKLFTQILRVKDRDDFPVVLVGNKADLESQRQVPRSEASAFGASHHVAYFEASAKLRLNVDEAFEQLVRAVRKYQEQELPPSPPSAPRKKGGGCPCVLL
UniProt O60942: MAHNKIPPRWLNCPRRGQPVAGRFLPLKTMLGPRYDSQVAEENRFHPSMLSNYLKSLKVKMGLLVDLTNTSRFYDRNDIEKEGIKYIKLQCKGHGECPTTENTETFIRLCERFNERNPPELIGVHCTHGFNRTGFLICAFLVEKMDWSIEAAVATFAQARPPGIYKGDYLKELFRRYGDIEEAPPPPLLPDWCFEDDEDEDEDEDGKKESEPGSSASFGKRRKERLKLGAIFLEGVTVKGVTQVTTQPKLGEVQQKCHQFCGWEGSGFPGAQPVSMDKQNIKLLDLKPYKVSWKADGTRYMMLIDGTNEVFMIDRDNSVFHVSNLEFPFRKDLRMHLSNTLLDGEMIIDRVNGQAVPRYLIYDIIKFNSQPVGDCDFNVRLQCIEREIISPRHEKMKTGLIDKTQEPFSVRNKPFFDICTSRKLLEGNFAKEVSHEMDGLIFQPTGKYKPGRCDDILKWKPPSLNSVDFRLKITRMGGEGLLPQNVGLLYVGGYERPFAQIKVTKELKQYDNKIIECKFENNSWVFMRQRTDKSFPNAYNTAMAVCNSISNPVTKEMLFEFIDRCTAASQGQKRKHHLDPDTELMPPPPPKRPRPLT
UniProt Q9H6T3, whole entry, looked up: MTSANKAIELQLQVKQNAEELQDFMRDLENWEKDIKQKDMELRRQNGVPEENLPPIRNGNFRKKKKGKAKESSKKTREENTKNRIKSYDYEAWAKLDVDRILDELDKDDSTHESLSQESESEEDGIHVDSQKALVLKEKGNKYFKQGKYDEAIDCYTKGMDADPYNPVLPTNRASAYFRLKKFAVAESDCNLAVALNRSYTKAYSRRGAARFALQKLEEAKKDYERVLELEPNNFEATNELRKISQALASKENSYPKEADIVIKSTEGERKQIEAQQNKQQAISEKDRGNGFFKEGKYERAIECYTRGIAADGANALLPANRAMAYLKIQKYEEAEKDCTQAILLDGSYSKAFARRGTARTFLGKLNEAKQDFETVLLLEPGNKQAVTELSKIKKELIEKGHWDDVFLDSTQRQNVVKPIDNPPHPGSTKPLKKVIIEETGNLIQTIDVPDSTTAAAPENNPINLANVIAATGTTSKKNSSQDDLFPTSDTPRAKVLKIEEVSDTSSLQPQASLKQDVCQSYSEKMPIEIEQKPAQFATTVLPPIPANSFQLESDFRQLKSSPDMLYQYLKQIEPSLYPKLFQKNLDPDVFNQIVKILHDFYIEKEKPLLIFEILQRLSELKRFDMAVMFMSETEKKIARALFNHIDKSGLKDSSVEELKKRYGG
UniProt Q92901: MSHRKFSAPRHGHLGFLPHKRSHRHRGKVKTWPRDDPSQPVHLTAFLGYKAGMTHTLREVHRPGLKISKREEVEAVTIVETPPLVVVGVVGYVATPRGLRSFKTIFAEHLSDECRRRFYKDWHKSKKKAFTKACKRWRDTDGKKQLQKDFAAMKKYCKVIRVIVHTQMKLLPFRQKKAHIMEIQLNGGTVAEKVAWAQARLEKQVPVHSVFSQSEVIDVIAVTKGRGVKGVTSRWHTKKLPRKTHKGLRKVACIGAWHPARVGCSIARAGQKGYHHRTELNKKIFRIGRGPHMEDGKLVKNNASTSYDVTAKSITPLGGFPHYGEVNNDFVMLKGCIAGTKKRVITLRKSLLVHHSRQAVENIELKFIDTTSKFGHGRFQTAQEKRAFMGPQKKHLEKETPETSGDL

What follows are targets tested with COc1cc2ncnc(Nc3ccc(F)c(Cl)c3)c2cc1OCCCN1CCOCC1 [gefitinib] (assay: log2 fold change, soluble protein after heating vs DMSO (PISA); higher = thermal stabilisation; K562 cells, 10 uM, 30 min; active = over 0.2 and 3.5 SD of the protein, either way, in both replicates (recomputed)).
Method in brief: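 Thermal stability values are relative to control samples and come from duplicates. They are expressed as log2 fold changes. For measurement, K562 cells (2×10^6 cells/mL) received 10 μM compound for 30 min, and aliquots were heated for 3 min over 48°C-58°C, pooled, and extracted at 4°C in PBS with 0.5% NP-40. Soluble protein, the supernatant after 21,000xg for 90 min, was quantified by TMTpro 16plex LC-MS/MS with equalised channel sums.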

log2 fold change, inactive:
RPL9 (UniProt P32969) -0.075, RNH1 (UniProt P13489) 0.021, RPL24 (UniProt P83731) -0.004, RPS17 (UniProt P08708) -0.035, RPL17 isoform 3 (UniProt P18621) -0.038, RPN1 (UniProt P04843) -0.017, RPP30 isoform 2 (UniProt P78346) 0.012, RPL15 (UniProt P61313) -0.093, RO60 (UniProt P10155) -0.012, RRM2B isoform 6 (UniProt Q7LG56) 0.02, RP2 (UniProt O75695) 0.038, RPP40 (UniProt O75818) -0.008, RPL36 (UniProt Q9Y3U8) -0.074, RPL11 (UniProt P62913) -0.055, RPL13 (UniProt P26373) -0.079, RNF25 (UniProt Q96BH1) -0.015, RPL8 (UniProt P62917) -0.069, RPS27 (UniProt P42677) -0.061, RPS19BP1 (UniProt Q86WX3) 0.071, RPL35 (UniProt P42766) -0.066, RPS10 (UniProt P46783) -0.004, RRBP1 (UniProt Q9P2E9) -0.05, RPL22 (UniProt P35268) -0.065, RPS6 (UniProt P62753) -0.054, RRAS (UniProt P10301) 0.024, RPL7 (UniProt P18124) -0.071, RPL13A (UniProt P40429) -0.099, RPL26 (UniProt P61254) -0.147, RPS29 (UniProt P62273) -0.035, RNGTT (UniProt O60942) 0.024, RPAP3 (UniProt Q9H6T3) -0.041, RPL3L (UniProt Q92901) -0.053
